This test concerns the target c-Met (extracellular domain)-Fc (human) (UniProt P08581). Kind of test: pull-down: HGF (100 ng) with Sema-Fc (0.5 ug) on protein A beads, Western blot with anti-human HGF; no lane without Sema-Fc is shown. Background: In western blotting, separated proteins are transferred to a membrane and probed.

Chains of the proteins cited; added tags and fusions are not shown. Residues count along the entry.
UniProt P08581, residues 25-932: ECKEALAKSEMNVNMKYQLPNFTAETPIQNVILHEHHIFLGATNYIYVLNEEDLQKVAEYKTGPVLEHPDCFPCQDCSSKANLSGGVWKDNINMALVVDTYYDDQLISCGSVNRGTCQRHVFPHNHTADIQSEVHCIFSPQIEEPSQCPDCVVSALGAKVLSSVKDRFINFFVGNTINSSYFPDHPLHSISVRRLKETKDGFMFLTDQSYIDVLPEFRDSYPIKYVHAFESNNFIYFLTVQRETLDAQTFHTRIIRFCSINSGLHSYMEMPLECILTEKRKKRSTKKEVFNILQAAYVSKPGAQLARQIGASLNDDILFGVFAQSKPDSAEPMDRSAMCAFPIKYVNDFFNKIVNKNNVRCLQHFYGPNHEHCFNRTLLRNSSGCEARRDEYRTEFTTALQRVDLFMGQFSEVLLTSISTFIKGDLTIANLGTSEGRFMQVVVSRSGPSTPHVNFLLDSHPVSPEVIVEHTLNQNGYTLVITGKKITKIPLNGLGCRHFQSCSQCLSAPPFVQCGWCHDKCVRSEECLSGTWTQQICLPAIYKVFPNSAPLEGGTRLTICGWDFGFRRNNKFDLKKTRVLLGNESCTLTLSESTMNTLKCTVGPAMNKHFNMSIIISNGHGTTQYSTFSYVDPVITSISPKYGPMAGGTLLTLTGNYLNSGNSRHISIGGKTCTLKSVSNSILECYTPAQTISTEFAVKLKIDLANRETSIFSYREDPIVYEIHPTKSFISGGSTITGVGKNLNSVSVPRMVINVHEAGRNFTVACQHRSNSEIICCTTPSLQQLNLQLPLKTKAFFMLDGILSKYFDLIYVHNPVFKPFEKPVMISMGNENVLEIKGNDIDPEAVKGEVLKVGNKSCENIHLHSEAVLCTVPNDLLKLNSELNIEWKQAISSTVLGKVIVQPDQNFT
UniProt P14210, residues 32-728: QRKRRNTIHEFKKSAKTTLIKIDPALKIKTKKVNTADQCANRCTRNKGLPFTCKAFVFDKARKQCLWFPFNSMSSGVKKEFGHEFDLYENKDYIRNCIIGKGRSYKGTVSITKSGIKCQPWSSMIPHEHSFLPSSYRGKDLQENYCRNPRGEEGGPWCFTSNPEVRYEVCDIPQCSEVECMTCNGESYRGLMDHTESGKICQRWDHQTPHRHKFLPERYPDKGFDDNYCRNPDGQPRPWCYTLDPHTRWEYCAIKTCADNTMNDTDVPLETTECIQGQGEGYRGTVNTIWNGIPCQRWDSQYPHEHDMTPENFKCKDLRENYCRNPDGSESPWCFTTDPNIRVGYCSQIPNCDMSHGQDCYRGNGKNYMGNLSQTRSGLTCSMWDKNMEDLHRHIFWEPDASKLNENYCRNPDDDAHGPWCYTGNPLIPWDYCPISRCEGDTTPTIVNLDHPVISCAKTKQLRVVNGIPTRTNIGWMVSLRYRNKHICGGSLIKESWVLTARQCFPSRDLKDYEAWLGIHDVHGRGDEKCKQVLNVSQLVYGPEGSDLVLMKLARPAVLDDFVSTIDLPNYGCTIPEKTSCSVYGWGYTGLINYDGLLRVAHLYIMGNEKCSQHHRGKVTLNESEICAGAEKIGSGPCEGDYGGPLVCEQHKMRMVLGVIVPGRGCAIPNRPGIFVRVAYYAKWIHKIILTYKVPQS

Results are given in words; binding and its absence hold for the method and conditions named. Binding seen in cells or lysates may run through a third protein. Some results given as binding are weak or reduced against the parent protein; the word gives no strength.

In US20140193431A1 (KOREA RESEARCH INSTITUTE OF BIOSCIENCE AND BIOTECHNOLOGY, published 2014) one finds binding data, which are given here for one substance.

As to “hepatocyte growth factor (HGF) (from UniProt P14210 32-728) (ligand)”, the binding entry is given as “binds”.
